These are yes or no findings as the source states them, for the method shown. Binding seen in cells or lysates may run through a third protein. Some binding calls cover weakened binding; strength is not graded here.

Protein sequences, listed by entry. Tags and fused reporters are not part of them. Lines headed by an entry give the natural chain unless they say otherwise; changes in a name come on top.
UniProt O75376: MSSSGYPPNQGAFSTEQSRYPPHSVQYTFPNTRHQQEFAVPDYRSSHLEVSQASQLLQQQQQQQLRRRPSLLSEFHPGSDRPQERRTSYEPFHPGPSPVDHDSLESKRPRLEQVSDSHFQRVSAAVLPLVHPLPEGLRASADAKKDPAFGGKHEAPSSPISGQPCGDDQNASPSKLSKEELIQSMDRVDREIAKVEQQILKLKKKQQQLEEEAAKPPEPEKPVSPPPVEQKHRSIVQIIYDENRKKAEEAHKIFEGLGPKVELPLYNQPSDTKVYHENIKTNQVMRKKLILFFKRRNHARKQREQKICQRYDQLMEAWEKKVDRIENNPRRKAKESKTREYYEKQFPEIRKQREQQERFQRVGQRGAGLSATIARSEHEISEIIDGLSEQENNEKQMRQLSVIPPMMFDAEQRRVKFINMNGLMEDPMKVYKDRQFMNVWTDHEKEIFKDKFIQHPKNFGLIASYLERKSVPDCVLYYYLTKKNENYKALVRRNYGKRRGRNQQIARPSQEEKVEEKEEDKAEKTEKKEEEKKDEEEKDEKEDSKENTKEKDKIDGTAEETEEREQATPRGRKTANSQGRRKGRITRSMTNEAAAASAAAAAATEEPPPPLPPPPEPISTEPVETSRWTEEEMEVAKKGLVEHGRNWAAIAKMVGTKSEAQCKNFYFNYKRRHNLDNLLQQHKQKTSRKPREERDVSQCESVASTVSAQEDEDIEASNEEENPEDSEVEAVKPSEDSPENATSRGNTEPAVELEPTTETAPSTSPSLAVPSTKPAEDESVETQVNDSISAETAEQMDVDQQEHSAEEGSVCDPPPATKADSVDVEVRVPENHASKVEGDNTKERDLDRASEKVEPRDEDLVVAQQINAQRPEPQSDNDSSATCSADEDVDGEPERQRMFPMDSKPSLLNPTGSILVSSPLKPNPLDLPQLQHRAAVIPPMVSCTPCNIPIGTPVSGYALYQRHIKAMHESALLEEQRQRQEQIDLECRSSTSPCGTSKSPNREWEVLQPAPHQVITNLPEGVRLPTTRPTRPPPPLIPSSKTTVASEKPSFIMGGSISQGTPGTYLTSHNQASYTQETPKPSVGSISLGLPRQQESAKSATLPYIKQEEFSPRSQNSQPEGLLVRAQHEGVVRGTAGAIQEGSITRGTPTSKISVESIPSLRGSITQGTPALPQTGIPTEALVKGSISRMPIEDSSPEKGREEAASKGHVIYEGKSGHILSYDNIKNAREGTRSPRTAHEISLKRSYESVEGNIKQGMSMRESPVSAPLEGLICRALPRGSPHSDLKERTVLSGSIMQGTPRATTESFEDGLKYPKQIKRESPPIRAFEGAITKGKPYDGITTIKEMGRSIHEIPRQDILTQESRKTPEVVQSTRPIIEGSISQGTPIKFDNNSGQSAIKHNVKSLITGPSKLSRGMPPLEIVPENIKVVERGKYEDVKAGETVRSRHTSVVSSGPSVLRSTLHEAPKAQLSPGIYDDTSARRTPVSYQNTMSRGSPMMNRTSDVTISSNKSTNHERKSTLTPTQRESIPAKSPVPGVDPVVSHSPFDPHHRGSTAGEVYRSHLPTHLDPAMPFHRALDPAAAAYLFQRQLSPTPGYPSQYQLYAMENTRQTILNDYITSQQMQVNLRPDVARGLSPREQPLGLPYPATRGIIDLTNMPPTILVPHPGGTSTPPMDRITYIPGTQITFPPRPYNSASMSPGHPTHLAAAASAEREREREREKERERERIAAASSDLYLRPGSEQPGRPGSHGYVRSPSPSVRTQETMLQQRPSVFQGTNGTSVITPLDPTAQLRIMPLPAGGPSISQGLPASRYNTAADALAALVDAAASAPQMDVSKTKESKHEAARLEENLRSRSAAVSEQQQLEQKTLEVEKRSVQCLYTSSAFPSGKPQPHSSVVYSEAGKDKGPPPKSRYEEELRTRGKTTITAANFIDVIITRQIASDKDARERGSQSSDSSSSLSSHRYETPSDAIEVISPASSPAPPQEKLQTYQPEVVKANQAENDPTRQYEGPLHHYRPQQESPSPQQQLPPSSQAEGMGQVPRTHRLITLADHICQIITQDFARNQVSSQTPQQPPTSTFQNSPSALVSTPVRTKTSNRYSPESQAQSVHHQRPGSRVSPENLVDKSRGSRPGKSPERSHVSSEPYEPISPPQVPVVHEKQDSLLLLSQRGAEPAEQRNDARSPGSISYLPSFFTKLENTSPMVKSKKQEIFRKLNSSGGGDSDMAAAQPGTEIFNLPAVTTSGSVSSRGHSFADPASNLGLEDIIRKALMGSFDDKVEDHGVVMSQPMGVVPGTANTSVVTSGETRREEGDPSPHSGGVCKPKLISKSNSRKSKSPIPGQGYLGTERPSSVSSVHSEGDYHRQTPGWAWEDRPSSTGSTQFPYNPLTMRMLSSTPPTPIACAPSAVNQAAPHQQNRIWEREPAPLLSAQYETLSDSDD

1 substance from PMC11628727 can be followed below.

The target in test [1] is T1, Rev‐erbα (human (endogenous in primary NP cells)) (UniProt P20393).
T1 sequence: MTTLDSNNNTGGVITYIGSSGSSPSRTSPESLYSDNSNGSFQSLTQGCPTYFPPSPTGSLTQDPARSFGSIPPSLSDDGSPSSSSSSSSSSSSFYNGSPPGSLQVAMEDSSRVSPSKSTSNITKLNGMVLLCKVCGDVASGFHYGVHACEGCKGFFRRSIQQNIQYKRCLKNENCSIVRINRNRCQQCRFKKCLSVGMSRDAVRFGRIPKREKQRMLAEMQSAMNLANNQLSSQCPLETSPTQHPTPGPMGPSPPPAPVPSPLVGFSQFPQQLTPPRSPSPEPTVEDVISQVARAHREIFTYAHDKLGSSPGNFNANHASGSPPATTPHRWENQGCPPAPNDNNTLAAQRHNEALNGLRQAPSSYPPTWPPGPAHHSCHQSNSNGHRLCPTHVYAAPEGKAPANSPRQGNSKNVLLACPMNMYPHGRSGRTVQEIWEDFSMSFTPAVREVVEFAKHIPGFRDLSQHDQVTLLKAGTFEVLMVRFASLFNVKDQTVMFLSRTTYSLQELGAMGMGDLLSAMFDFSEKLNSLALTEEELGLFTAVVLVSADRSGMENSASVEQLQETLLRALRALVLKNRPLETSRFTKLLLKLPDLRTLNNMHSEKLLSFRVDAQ
In words: condition: only NP cells cultured with rhIL1β for 2 days (heme depletion); co-IP; as a1, but NP cells exposed to rhIL1β for 2 days without hemin (heme depletion).

Test [2] has as its target T1, Rev‐erbα (human (endogenous in primary NP cells)). In words: co-IP; IP with 1 μg Rev‐erbα antibody (control IgG) from whole lysates of dexamethasone-synchronised human primary NP cells, 4°C overnight, Protein G agarose beads, western blot; control and rhIL‐1β + hemin groups; lysis buffer 50 mM Tris pH 7.5, 150 mM NaCl, 2 mM EDTA, 1.5% NP40.

As to “nuclear receptor co‐repressor (NCoR) and histone deacetylase 3 (HDAC3) complex (from UniProt O75376 1-2440; O15379 1-428)”, the binding result is listed as “no binding” in test [1] and “binds” in test [2].
